Where two headings read alike, the source gives them in different places. These are yes or no findings as the source states them, for the method shown. Binding seen in cells or lysates may run through a third protein. Here binding means that the protein was enriched with, or labelled near, the bait; the list need not be complete. For part of these data: No binding means not detected with the bait.
Columns and labels:
[1] = target: T1, Air1 (S. cerevisiae (endogenous in strains derived from BY4741)) (UniProt P40507); assay: affinity purification with mass spectrometry; tandem-affinity purification of C-terminally HTP-tagged bait (Air1, Air2, Trf4 or Trf5) from yeast extract under stringent conditions (1 M NaCl); LC-MS/MS, label-free quantification (iBAQ); non-tagged strain as negative control
T1 sequence: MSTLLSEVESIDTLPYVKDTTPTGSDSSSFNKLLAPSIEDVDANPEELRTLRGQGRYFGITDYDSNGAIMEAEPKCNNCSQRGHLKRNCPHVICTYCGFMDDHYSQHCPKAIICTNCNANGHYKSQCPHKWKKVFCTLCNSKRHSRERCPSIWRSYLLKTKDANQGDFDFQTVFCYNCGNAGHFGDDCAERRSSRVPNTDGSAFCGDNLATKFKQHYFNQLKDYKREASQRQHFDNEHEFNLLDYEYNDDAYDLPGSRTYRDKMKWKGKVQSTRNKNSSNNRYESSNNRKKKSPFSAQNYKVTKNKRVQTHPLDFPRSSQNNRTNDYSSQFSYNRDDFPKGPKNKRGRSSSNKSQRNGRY

Amino acid sequences for entries named in this document (tags omitted).
UniProt P22147: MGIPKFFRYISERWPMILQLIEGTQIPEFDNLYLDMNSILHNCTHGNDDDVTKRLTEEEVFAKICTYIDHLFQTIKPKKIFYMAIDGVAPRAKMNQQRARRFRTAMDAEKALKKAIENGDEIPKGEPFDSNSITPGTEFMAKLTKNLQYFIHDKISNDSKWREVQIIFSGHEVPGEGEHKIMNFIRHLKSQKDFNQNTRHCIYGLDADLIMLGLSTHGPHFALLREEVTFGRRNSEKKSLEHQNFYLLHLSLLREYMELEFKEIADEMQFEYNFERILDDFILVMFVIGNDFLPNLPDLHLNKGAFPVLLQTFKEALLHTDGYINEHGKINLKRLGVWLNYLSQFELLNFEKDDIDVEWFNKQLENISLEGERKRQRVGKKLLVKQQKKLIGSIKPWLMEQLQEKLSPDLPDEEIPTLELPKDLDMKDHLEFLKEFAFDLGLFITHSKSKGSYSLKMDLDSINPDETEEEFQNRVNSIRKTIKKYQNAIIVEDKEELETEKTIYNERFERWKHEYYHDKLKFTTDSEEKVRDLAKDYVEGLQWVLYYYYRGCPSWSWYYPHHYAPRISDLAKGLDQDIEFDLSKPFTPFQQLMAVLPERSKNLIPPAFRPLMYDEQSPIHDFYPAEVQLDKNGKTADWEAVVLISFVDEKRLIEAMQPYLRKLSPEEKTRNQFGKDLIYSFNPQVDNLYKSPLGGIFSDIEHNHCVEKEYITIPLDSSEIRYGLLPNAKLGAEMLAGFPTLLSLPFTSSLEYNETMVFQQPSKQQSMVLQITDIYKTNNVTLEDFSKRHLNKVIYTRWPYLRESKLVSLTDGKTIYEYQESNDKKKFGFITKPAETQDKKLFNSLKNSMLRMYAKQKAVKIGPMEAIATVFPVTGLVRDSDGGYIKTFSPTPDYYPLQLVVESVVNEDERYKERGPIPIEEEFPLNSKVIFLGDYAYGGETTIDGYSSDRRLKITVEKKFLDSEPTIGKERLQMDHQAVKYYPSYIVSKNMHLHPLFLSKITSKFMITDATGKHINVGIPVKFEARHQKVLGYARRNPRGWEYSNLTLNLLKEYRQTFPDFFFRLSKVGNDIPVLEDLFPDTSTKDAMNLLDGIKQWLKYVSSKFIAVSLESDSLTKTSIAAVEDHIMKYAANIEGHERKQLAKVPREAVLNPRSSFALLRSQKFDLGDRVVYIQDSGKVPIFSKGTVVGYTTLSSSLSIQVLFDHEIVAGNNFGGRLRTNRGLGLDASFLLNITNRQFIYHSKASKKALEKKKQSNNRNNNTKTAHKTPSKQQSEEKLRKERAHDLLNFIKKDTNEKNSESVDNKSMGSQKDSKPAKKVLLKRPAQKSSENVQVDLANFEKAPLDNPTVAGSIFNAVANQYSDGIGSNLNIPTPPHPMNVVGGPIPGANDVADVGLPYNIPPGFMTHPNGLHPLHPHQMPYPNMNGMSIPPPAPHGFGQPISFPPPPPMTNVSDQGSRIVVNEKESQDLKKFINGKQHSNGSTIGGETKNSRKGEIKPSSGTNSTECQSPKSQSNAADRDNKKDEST

[2] = target: T2, Air2 (S. cerevisiae (endogenous in strains derived from BY4741)) (UniProt Q12476); assay: as above
T2 sequence: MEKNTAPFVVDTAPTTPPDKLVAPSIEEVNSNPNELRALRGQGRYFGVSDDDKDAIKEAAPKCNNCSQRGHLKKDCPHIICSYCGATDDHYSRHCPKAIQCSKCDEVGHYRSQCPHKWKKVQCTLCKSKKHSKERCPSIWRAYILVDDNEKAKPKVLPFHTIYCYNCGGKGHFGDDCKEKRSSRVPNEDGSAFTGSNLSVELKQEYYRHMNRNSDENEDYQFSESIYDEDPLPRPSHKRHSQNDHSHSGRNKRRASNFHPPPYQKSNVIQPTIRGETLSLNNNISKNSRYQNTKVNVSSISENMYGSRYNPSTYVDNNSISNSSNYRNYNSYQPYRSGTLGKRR

[3] = target: T3, Trf4 (S. cerevisiae (endogenous in strains derived from BY4741)) (UniProt P53632); assay: affinity purification with mass spectrometry; purification of Trf4-HTP or Trf5-HTP from yeast extract at lower stringency (150 mM NaCl), without RNase treatment; enrichment (riBAQ ratio) against the non-tagged control, ratio <2 taken as not enriched
T3 sequence: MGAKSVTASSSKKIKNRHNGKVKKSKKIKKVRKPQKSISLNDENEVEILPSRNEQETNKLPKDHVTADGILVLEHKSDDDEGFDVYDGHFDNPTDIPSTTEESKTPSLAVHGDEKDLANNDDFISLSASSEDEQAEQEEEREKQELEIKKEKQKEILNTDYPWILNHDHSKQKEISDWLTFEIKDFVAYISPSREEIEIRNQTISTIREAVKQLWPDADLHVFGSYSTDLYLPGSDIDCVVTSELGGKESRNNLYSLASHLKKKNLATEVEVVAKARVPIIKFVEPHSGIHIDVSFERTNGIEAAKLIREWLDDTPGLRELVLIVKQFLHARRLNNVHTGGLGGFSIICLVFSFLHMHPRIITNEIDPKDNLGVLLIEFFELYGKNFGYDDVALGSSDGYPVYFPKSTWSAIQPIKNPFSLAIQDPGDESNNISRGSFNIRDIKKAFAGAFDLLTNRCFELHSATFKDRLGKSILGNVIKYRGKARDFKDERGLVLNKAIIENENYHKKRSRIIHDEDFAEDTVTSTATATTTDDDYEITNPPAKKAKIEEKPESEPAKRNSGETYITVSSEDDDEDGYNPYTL

[4] = target: T4, Trf5 (S. cerevisiae (endogenous in strains derived from BY4741)) (UniProt P48561); assay: as above
T4 sequence: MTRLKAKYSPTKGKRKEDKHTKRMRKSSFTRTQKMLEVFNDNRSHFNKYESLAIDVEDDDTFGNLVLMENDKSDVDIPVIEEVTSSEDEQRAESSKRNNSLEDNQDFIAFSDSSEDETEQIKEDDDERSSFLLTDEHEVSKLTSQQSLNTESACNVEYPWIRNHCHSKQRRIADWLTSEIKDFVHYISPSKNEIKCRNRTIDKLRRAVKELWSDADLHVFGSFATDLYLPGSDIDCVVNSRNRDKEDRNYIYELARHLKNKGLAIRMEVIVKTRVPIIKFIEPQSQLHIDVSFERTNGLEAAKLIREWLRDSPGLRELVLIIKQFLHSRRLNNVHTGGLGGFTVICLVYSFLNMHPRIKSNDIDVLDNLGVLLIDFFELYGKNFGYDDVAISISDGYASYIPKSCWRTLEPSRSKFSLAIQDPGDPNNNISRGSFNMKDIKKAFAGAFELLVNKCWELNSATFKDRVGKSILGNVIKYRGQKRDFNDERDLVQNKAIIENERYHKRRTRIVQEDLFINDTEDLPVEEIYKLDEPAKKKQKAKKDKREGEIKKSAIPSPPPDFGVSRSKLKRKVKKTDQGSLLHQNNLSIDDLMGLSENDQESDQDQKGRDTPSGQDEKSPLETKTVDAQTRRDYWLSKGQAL

[5] = target: T1, Air1 (S. cerevisiae (endogenous in strains derived from BY4741)); assay: affinity purification with mass spectrometry; tandem-affinity purification of C-terminally HTP-tagged bait (Air1, Air2, Trf4 or Trf5) from yeast extract under stringent conditions (1 M NaCl); LC-MS/MS, label-free quantification (iBAQ); non-tagged strain as negative control; remark: listed apart in the source
[6] = target: T2, Air2 (S. cerevisiae (endogenous in strains derived from BY4741)); assay: as above; remark: listed apart in the source

Molecule: Xrn1 (from UniProt P22147 1-1528) (enzyme)
- binding [1]: binds
- binding [2]: binds
- binding [3]: binds

B1: Nab3 (protein, UniProt P38996 1-802)
chain: MSDENHNSDVQDIPSPELSVDSNSNENELMNNSSADDGIEFDAPEEEREAEREEENEEQHELEDVNDEEEEDKEEKGEENGEVINTEEEEEEEHQQKGGNDDDDDDNEEEEEEEEDDDDDDDDDDDDEEEEEEEEEEGNDNSSVGSDSAAEDGEDEEDKKDKTKDKEVELRRETLEKEQKDVDEAIKKITREENDNTHFPTNMENVNYDLLQKQVKYIMDSNMLNLPQFQHLPQEEKMSAILAMLNSNSDTALSVPPHDSTISTTASASATSGARSNDQRKPPLSDAQRRMRFPRADLSKPITEEEHDRYAAYLHGENKITEMHNIPPKSRLFIGNLPLKNVSKEDLFRIFSPYGHIMQINIKNAFGFIQFDNPQSVRDAIECESQEMNFGKKLILEVSSSNARPQFDHGDHGTNSSSTFISSAKRPFQTESGDMYNDDNGAGYKKSRRHTVSCNIFVKRTADRTYAIEVFNRFRDGTGLETDMIFLKPRMELGKLINDAAYNGVWGVVLVNKTHNVDVQTFYKGSQGETKFDEYISISADDAVAIFNNIKNNRNNSRPTDYRAMSHQQNIYGAPPLPVPNGPAVGPPPQTNYYQGYSMPPPQQQQQQPYGNYGMPPPSHDQGYGSQPPIPMNQSYGRYQTSIPPPPPQQQIPQGYGRYQAGPPPQPPSQTPMDQQQLLSAIQNLPPNVVSNLLSMAQQQQQQPHAQQQLVGLIQSMQGQAPQQQQQQLGGYSSMNSSSPPPMSTNYNGQNISAKPSAPPMSHQPPPPQQQQQQQQQQQQQQQQPAGNNVQSLLDSLAKLQK
- binding [4]: no binding
- binding [3]: binds

B2: Nrd1 (protein, UniProt P53617 1-575)
chain: MQQDDDFQNFVATLESFKDLKSGISGSRIKKLTTYALDHIDIESKIISLIIDYSRLCPDSHKLGSLYIIDSIGRAYLDETRSNSNSSSNKPGTCAHAINTLGEVIQELLSDAIAKSNQDHKEKIRMLLDIWDRSGLFQKSYLNAIRSKCFAMDISNNTANTASQQLSLDPKQRSKQILSNLKKSPPLNLNISLPTDLTSTDPAKQQAALFQVIAALQKHFKTLPSHTSVGTVAPPQAHTITEYGSRRERERERERYNSRRNRSRSPPAPFSQPSTGRKDRYPSVAQDQYSIGAPNTTFGTNNHHLYPDELNVSNNPHYRPKPVSYDSTLPPDHIKVYSRTLFIGGVPLNMKEWDLANVLKPFAEVQSVILNNSRKHAFVKVYSRHEAENVLQNFNKDGALPLRTRWGVGFGPRDCCDYQHGYSIIPMHRLTDADKKWSVSAQWGGTSGQPLVTGIVFEEPDIIVGEGVSSKAISQKMPTDSGRNGPRSGKPNKSGSISSISPVPYGNAPLASPPPQQYVQPMMQQPYGYAPNQPLPSQGPAAAAPPVPQQQFDPTAQLNSLMNMLNQQQQQQQQS
- binding [4]: no binding
- binding [3]: binds

B3: Nop53 (protein, UniProt Q12080 1-455)
chain: MAPTNLTKKPSQYKQSSRKGKKAWRKNIDLSDVEQYMEKKIDHEITHGTSDITSLQNDALFHVDVEGDEILKNKLIKRKQIKKVLKSKEILDAVKTNSKIAALNHHKNSSGNPNKIQGVSKHELKKLMALAGRVHGESKIKNRVAKDGLVKTTAGDLWGEESNSKKQKVKLPSGIKLDVEKKDQIPEELLKKSTTSWSTASVRPSTLDIEPIAVKEFTEIPHAGKSYNPNNKAWSELINKEYKEEKAREDERIALEKYKERIRHLMETLDDNEEEESSSNEEEEEEEEENENENESTQCSGSDKEIKLSINKPVKNKKKTKYQRNKAKRHEEKVKLQQELKELRQRVKDLEEVINSEETEILSAIESDSNKVKKSKKNKKHKLGTKYSVIDERLEIKFSDELSDSLRKLKPEGNLLYDTVRKLQSSGKVETRVPVRKGRKYKQKITEKWTHKDFK
- binding [5]: no binding
- binding [6]: no binding
- binding [4]: no binding
- binding [3]: no binding

B4: Utp18 (protein, UniProt P40362 1-594)
chain: MTMATTAMNVSVPPPDEEEQLLAKFVFGDTTDLQENLAKFNADFIFNEQEMDVEDQEDEGSESDNSEEDEAQNGELDHVNNDQLFFVDDGGNEDSQDKNEDTMDVDDEDDSSSDDYSEDSEEAAWIDSDDEKIKVPILVTNKTKKLRTSYNESKINGVHYINRLRSQFEKIYPRPKWVDDESDSELDDEEDDEEEGSNNVINGDINALTKILSTTYNYKDTLSNSKLLPPKKLDIVRLKDANASHPSHSAIQSLSFHPSKPLLLTGGYDKTLRIYHIDGKTNHLVTSLHLVGSPIQTCTFYTSLSNQNQQNIFTAGRRRYMHSWDLSLENLTHSQTAKIEKFSRLYGHESTQRSFENFKVAHLQNSQTNSVHGIVLLQGNNGWINILHSTSGLWLMGCKIEGVITDFCIDYQPISRGKFRTILIAVNAYGEVWEFDLNKNGHVIRRWKDQGGVGITKIQVGGGTTTTCPALQISKIKQNRWLAVGSESGFVNLYDRNNAMTSSTPTPVAALDQLTTTISNLQFSPDGQILCMASRAVKDALRLVHLPSCSVFSNWPTSGTPLGKVTSVAFSPSGGLLAVGNEQGKVRLWKLNHY
- binding [5]: no binding
- binding [6]: no binding
- binding [4]: no binding
- binding [3]: no binding

Reference: article PMC7305330
